# Measurements as given in patent US11673892B2, “Bicyclic compounds for use as RIP1 kinase inhibitors” (Genentech, Inc., priority 2017, dated 2023).
# Amino acid sequences for entries named in this document (tags omitted). Residues count along the entry.
# UniProt Q13546, 2-375 limits assumed: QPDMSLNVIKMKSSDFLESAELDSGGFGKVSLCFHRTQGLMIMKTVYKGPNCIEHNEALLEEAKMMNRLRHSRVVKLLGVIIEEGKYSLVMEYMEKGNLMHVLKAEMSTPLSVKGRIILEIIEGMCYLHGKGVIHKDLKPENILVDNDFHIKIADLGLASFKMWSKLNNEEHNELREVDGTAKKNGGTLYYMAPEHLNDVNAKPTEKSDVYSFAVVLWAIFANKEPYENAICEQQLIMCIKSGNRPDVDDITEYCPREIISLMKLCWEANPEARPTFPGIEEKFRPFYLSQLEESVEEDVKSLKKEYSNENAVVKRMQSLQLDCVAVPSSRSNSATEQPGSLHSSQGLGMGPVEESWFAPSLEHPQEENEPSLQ
# Target: human RIP1 kinase domain (2-375) (Homo sapiens, UniProt Q13546)
# Assay: RIP1 kinase inhibition biochemical assay (Transcreener ADP, fluorescence polarization)
# Settings: Ki app (Morrison tight-binding fit); 50 nM enzyme, 50 uM ATP, 2 hours incubation
# Method: RIP1 Kinase Inhibition Assays (Biochemical Assay)
# The compounds of the present invention were tested for their capacity to inhibit RIP1K activity as described below.
# The ability of the receptor interacting protein kinase (RIPK1) to catalyze the hydrolysis of adenosine-5′-triphosphate (ATP) is monitored using the Transcreener ADP (adenosine-5′-diphosphate) assay (BellBrook Labs). Purified human RIP1 kinase domain (2-375) (50 nM) derived from a baculovirus-infected insect cell expression system is incubated with test compounds for 2 hours in 50 mM Hepes buffer (pH 7.5) containing 30 mM MgCl2, 1 mM dithiothreitol, 50 uM ATP, 0.002% Brij-35, and 0.5% dimethyl sulfoxide (DMSO). Reactions are quenched by the addition of 1× Bell Brooks Stop buffer B (20 mM Hepes (ph7.5), 40 mM ethylenediaminetetraacetic acid and 0.02% Brij-35) containing an additional 12 mM EDTA and 55 ug/mL ADP2 antibody and 4 nM ADP-AlexaFluor® 633 tracer. The tracer bound to the antibody is displaced by the ADP generated during the RIP1K reaction, which causes a decrease in fluorescence polarization that is measured by laser excitation at 633 nm with a FP microplate reader M1000. Fractional activity was plotted against test article concentration. […]
row,Compound,Ki [µM]
1,"F[C@H]1C[C@@H](c2ccccc2)n2nc(-n3nnc4cnccc43)nc21 (single isomer, unassigned)",0.055
2,CCOCCc1nc2n(n1)[C@H](c1ccccc1)C[C@@H]2F,0.49

# The match of structure and compound is tentative.
